Literature values as cited in US20240366577A1, “CONTROLLED LONG-TERM DRUG DELIVERY AND METHODS THEREOF” (THE JOHNS HOPKINS UNIVERSITY, priority 2021, published 2024).
At least one structure is not confirmed: it was looked up by name or label, or the drawing left a doubt.

Details: stents coated ~3-5 μm thick; cited from earlier work

For `CO[C@H]1C[C@@H]2CC[C@@H](C)[C@@](O)(O2)C(=O)C(=O)N2CCCC[C@H]2C(=O)O[C@H]([C@H](C)C[C@@H]2CC[C@@H](O)[C@H](OC)C2)CC(=O)[C@H](C)/C=C(\C)[C@@H](O)[C@@H](OC)C(=O)[C@H](C)C[C@H](C)/C=C/C=C/C=C/1C` [crystalline rapamycin, rapamycin], the “duration of steady drug release in vitro” value is listed as “up to 75 days”.
